Measured data: PubChem BioAssay AID1053208 (Peter MacCallum Cancer Centre, 2014)
Screen: 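Find knock-downs that sensitise mouse osteosarcoma cells to doxorubicin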 (primary screen). Cells: mouse osteosarcoma cells, early-passage culture from an engineered mouse model of fibroblastic bone tumour. Reagent: siRNA pool against mouse genes, 40 nM. Timing: about 120 h (48 h before drug, then 72 h with drug). Conditions: doxorubicin 100 nM for 72 h, roughly 30-40% inhibitory dose. Detection: 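Viability read as ATP luminescence after 72 h of 100 nM doxorubicin or none, duplicate wells averaged, scaled to non-targeting siRNA, then expressed as robust z-scores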. Scale: viability z-score with doxorubicin: higher = more viable cells under doxorubicin; viability z-score without drug: higher = more viable cells with knock-down alone. Rule for the call: 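Called active if knock-down leaves viability unchanged without drug (z within -2 to 2) but lowers it with doxorubicin (z at or under -2)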.
Shown is an unselected part of about 17,000 deposited reagents. Of all reagents, 788 (4.7%) were called active. 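Calls rest on z-score classes alone; an extra cut-off of viability at most 70% of control was not applied to them.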 Unmarked entries are inactive. Further read-outs or replicates are left out here. Reagent sequences are not shown.

With Bach2, what was measured?
combined z-score class: high cell count with and without drug; viability z-score with doxorubicin: 2.25; viability z-score without drug: 3.04

What is on record for Ppm1a?
combined z-score class: no change with or without drug; viability z-score with doxorubicin: 1.12; viability z-score without drug: -0.34

What did the screen give for Hdac5?
combined z-score class: no change with or without drug; viability z-score with doxorubicin: 0; viability z-score without drug: 0.51

With SCN1A, how do the results read?
combined z-score class: no change with or without drug; viability z-score with doxorubicin: -0.45; viability z-score without drug: 0.17

How did the screen score Fdps?
combined z-score class: no change with or without drug; viability z-score with doxorubicin: 0; viability z-score without drug: 0.34

For Slc25a41, what was measured?
combined z-score class: no change with or without drug; viability z-score with doxorubicin: 0.67; viability z-score without drug: 1.52

Which result is listed for Vipr2?
combined z-score class: no change with or without drug; viability z-score with doxorubicin: 0.9; viability z-score without drug: 0.67

With Or4c1, how do the results read?
combined z-score class: no change with or without drug; viability z-score with doxorubicin: 0.34; viability z-score without drug: 1.85

With Tarm1, what does the deposit list?
combined z-score class: no change with or without drug; viability z-score with doxorubicin: -0.22; viability z-score without drug: 0.51

For Tppp, what does the deposit list?
combined z-score class: no change with or without drug; viability z-score with doxorubicin: 1.35; viability z-score without drug: -0.17

With Myl12b, what was measured?
combined z-score class: no change with or without drug; viability z-score with doxorubicin: 0.9; viability z-score without drug: -0.51

With Ciao3, how do the results read?
combined z-score class: low cell count without drug only; viability z-score with doxorubicin: 0.45; viability z-score without drug: -2.19

Only “viability z-score with doxorubicin” (2 entries from above):
Myl12b = 0.9
Ciao3 = 0.45
